Values are relative to the signal before dosing, not to a vehicle control; the signal also falls without drug.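 Fibroblast labels name human fibroblasts: mostly primary ones from tissues such as uterus (C12385, HUF), lung (H6013), bone (Hs27A), adrenal (HADF) and skin (WS1), plus mammary HMF and breast cancer-associated Hs343T. The cancer cells are basal-like or mesenchymal-like triple-negative breast cancer lines. The paper calls a changed response a hit when it shifts by more than 3x the replicate standard deviation. The tissue of the other fibroblasts is not given here.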
System: MDAMB436
Experiment: relative JC-1 red fluorescence (viability) vs pre-drug, coculture with fibroblast (fraction); higher = more viable cancer cells
Description: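 JC-1 labelled TNBC cells cocultured 1:1 (1,500 cells each) with CellTrace Violet stained primary or stromal fibroblasts in 384-well plates in FluoroBrite medium, treated with one of 42 anticancer drugs at 0.1, 1, 10 or 100 uM. JC-1 red fluorescence (mitochondrial integrity in cancer cells only) was read by plate reader every 8 h for 72 h. Values are normalised to each well's pre-drug value. The stock of one drug was tenfold lower, so its dose labels may be too high.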

CO[C@H]1C[C@@H]2CC[C@@H](C)[C@@](O)(O2)C(=O)C(=O)N2CCCC[C@H]2C(=O)O[C@H]([C@H](C)C[C@@H]2CC[C@@H](OCCO)[C@H](OC)C2)CC(=O)[C@H](C)/C=C(\C)[C@@H](O)[C@@H](OC)C(=O)[C@H](C)C[C@H](C)/C=C/C=C/C=C/1C [Everolimus]
relative JC-1 red fluorescence
Conditions	8 h	16 h	24 h	32 h	40 h	48 h	56 h	64 h	72 h
10 µM, coculture fibroblast: C12385	0.851	0.8947	0.9378	0.8837	0.852	0.8312	0.8065	0.785	0.775
10 µM, coculture fibroblast: H6013	0.869	0.9345	0.977	0.8	0.952	0.861	0.869	0.91	0.829
10 µM, coculture fibroblast: H6019	0.8554	0.86	0.895	0.857	0.857	0.842	0.818	0.79	0.771
10 µM, coculture fibroblast: H6076	0.789	0.8357	0.91	0.909	0.922	0.911	0.934	0.922	0.904
10 µM, coculture fibroblast: H6231	0.826	0.879	0.855	0.939	0.923	0.885	0.873	0.837	0.827
10 µM, coculture fibroblast: HADF	0.878	0.932	0.952	0.825	0.817	0.915	0.916	0.912	0.858
10 µM, coculture fibroblast: HCFa	0.906	0.9119	0.832	0.841	0.955	0.963	0.881	0.854	0.784
10 µM, coculture fibroblast: HCPF	0.837	0.896	0.942	0.895	0.893	0.852	0.8245	0.804	0.785
10 µM, coculture fibroblast: HHSteC	0.847	0.853	0.926	0.848	0.903	0.803	0.833	0.818	0.8635
10 µM, coculture fibroblast: HMF	0.935	0.856	0.983	0.957	0.932	0.875	0.853	0.817	0.79
10 µM, coculture fibroblast: HPFa	0.949	0.897	0.88	0.799	0.784	0.804	0.883	0.841	0.868
10 µM, coculture fibroblast: HUF	0.8988	0.919	0.94	0.902	0.853	0.814	0.782	0.765	0.751
10 µM, coculture fibroblast: Hs5	0.885	0.926	0.963	0.912	0.892	0.821	0.816	0.764	0.738
10 µM, coculture fibroblast: Hs27A	0.812	0.869	0.84	0.828	0.864	0.802	0.861	0.949	0.881
10 µM, coculture fibroblast: Hs343T	0.8435	0.8688	0.918	0.895	0.885	0.84	0.835	0.821	0.808
10 µM, coculture fibroblast: WS1	0.845	0.864	0.901	0.847	0.826	0.803	0.779	0.751	0.735
100 µM, coculture fibroblast: C12385	0.878	0.836	0.645	0.475	0.392	0.389	0.394	0.422	0.448
100 µM, coculture fibroblast: H6013	0.834	0.854	0.826	0.817	0.862	0.79	0.691	0.688	0.7
100 µM, coculture fibroblast: H6019	0.906	0.787	0.861	0.733	0.629	0.575	0.541	0.544	0.565
100 µM, coculture fibroblast: H6076	0.727	0.769	0.818	0.822	0.669	0.58	0.609	0.649	0.698
100 µM, coculture fibroblast: H6231	0.798	0.781	0.888	0.801	0.94	0.762	0.752	0.778	0.829
100 µM, coculture fibroblast: HADF	0.83	0.833	0.8601	0.859	0.864	0.783	0.703	0.788	0.73
100 µM, coculture fibroblast: HCFa	0.843	0.814	0.852	0.887	0.7947	0.812	0.783	0.747	0.74
100 µM, coculture fibroblast: HCPF	0.815	0.782	0.751	0.877	0.722	0.578	0.548	0.57	0.61
100 µM, coculture fibroblast: HHSteC	0.936	0.874	0.9263	0.792	0.7103	0.789	0.825	0.881	0.863
100 µM, coculture fibroblast: HMF	0.75	0.739	0.833	0.8499	0.75	0.637	0.571	0.579	0.6
100 µM, coculture fibroblast: HPFa	0.858	0.8406	0.7077	0.865	0.813	0.898	0.896	0.86	0.749
100 µM, coculture fibroblast: HUF	0.759	0.885	0.887	0.695	0.567	0.46	0.434	0.443	0.463
100 µM, coculture fibroblast: Hs5	0.937	0.8983	0.881	0.662	0.5732	0.486	0.518	0.53	0.56
100 µM, coculture fibroblast: Hs27A	0.862	0.93	0.887	0.801	0.945	0.922	0.82	0.789	0.757
100 µM, coculture fibroblast: Hs343T	0.83	0.795	0.755	0.846	0.806	0.707	0.704	0.76461	0.8353
100 µM, coculture fibroblast: WS1	0.859	0.84	0.805	0.642	0.527	0.459	0.43	0.424	0.444

Source: the supplement of paper PMC6078165
